Substitutions are numbered along the chain they refer to. No constants are given. Whether binding was seen depends on the method and setting. In cells and extracts the contact can be indirect. A result given as binding can be weak or reduced; the word gives no strength.
Columns and labels:
[1] = molecular target: T1, Mouse OFD1 A80T (mouse) (UniProt Q80Z25); assay: co-IP; OFD1 mutants co-expressed with TRAPPC8 or TRAPPC12; IP efficiency as ratio of immunoprecipitated TRAPPC8/OFD1 or TRAPPC12/OFD1; cell line and IP antibody not stated for this panel
T1 sequence: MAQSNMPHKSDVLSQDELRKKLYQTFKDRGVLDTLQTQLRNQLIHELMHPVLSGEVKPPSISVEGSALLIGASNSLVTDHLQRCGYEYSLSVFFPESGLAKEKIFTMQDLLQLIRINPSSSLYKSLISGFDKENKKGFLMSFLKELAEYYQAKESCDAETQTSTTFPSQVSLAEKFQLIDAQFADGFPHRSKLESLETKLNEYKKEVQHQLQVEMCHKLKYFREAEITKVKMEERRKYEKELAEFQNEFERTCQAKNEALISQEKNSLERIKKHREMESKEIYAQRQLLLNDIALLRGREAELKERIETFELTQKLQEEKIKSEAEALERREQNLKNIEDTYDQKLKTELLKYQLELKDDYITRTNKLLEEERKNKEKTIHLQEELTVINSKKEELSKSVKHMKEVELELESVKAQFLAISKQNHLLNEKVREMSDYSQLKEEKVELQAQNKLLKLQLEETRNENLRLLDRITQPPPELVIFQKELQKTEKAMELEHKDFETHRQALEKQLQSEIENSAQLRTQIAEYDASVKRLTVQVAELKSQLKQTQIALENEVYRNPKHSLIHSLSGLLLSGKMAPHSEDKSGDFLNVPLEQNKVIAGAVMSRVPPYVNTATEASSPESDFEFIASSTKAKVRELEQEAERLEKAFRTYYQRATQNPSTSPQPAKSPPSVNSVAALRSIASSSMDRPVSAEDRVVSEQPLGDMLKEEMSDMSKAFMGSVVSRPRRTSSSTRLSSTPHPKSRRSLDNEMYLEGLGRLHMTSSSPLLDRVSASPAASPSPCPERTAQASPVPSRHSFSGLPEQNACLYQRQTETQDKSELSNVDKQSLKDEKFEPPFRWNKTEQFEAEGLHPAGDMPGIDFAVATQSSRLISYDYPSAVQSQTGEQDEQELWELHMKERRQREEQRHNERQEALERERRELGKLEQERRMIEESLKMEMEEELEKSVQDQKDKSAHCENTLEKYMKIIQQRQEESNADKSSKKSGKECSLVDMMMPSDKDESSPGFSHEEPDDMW

[2] = molecular target: T2, Mouse OFD1 S437R (mouse) (UniProt Q80Z25); assay: as above
T2 sequence: T1 sequence with T78A, S435R

binding [1]: binds
binding [2]: binds
Substance: NTAP-tagged TRAPPC8 (mouse)

— publication PMC7090148 (2020)
